Test results from the supplement of paper PMC7666118.
Some of the results follow.

Amino acid sequences for entries named in this document (tags omitted). A change or cut given only in a name is not applied to a line headed by its entry.
UniProt P28702: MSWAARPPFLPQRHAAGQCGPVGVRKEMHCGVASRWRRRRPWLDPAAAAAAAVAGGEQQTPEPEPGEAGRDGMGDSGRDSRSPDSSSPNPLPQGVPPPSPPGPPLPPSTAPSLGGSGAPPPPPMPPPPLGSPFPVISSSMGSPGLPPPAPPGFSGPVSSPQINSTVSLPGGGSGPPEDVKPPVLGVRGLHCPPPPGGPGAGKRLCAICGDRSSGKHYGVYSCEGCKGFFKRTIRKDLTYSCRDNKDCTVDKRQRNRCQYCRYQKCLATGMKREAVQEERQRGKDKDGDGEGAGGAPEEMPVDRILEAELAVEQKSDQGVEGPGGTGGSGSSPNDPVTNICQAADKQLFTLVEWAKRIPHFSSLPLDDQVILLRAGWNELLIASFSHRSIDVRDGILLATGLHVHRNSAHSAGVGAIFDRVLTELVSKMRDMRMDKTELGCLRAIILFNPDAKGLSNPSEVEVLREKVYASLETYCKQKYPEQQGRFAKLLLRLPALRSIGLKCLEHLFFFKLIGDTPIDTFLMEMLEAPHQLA
UniProt O75582, whole entry, looked up: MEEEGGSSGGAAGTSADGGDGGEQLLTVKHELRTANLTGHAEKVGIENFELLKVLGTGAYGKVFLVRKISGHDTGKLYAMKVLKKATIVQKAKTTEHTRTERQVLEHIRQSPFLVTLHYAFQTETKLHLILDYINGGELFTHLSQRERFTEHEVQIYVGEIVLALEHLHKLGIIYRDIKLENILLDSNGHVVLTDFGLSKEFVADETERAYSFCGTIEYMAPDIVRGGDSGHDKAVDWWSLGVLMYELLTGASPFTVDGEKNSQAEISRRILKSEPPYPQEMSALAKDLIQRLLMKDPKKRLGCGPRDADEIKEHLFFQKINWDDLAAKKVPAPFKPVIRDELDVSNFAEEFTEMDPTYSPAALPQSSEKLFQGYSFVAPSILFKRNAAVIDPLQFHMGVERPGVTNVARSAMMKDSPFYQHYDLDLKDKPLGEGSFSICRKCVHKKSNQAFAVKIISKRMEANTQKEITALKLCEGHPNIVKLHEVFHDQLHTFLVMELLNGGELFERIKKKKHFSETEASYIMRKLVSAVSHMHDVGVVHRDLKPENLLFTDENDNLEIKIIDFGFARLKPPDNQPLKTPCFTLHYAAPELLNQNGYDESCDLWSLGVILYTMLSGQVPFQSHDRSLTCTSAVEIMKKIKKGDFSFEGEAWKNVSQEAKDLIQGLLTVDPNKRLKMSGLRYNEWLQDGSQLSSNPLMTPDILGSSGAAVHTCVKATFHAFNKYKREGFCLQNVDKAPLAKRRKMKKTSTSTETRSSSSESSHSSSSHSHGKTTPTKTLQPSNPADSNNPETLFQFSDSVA
UniProt Q5H9R7: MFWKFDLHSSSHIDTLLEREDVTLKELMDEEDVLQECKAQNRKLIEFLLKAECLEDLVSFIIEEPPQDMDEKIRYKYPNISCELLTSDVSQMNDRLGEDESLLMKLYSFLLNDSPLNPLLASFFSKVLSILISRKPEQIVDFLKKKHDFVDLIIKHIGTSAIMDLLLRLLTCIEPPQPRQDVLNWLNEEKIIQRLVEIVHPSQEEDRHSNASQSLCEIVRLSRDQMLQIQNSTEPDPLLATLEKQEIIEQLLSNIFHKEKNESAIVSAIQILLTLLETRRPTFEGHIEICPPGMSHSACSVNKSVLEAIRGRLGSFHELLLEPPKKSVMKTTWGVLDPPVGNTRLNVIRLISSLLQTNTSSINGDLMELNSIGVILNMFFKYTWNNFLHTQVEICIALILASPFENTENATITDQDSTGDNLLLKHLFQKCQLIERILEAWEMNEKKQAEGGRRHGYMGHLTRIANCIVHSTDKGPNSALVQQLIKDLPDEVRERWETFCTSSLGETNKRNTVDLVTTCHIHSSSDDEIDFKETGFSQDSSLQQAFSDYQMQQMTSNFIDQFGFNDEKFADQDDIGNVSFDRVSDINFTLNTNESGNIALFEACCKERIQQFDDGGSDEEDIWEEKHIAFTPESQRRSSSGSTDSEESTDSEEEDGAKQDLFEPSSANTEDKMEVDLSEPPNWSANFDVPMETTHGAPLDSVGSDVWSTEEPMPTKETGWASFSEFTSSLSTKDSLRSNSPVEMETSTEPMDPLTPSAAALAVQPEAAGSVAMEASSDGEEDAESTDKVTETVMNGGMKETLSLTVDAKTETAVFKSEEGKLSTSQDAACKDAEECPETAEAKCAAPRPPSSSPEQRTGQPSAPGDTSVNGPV
UniProt P46063: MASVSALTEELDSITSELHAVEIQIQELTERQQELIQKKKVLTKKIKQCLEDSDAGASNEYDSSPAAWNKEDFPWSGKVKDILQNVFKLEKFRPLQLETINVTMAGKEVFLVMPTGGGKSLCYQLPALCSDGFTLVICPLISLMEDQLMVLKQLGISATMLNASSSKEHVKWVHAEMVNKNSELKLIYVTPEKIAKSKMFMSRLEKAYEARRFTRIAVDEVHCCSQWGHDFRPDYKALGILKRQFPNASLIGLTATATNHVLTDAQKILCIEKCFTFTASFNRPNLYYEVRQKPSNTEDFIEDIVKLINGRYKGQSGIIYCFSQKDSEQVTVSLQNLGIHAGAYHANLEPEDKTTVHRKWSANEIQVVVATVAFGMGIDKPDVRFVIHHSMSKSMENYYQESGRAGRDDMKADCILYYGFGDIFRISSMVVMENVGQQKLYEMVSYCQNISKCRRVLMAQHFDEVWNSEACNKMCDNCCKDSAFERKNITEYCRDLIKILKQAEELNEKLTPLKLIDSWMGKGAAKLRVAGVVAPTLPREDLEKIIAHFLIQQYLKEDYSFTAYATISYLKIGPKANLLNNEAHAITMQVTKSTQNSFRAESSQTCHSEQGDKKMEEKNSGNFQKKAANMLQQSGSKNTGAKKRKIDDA
UniProt Q04206, whole entry: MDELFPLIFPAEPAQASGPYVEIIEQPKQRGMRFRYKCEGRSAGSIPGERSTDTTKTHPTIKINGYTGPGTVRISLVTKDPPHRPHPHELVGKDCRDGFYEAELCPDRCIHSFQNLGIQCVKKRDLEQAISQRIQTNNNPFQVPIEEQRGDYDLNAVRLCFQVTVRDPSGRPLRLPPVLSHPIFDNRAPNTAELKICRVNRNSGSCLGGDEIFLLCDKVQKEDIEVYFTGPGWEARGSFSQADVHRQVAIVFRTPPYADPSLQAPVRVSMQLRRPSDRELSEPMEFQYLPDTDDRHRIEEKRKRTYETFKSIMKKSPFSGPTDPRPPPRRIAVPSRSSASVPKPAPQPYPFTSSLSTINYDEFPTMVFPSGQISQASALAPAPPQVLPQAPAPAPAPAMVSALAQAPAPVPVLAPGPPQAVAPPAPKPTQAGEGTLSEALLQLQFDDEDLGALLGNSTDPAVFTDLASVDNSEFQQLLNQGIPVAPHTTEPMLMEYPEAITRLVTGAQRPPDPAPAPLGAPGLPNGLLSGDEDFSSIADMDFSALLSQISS
UniProt Q8IXI1, whole entry, looked up: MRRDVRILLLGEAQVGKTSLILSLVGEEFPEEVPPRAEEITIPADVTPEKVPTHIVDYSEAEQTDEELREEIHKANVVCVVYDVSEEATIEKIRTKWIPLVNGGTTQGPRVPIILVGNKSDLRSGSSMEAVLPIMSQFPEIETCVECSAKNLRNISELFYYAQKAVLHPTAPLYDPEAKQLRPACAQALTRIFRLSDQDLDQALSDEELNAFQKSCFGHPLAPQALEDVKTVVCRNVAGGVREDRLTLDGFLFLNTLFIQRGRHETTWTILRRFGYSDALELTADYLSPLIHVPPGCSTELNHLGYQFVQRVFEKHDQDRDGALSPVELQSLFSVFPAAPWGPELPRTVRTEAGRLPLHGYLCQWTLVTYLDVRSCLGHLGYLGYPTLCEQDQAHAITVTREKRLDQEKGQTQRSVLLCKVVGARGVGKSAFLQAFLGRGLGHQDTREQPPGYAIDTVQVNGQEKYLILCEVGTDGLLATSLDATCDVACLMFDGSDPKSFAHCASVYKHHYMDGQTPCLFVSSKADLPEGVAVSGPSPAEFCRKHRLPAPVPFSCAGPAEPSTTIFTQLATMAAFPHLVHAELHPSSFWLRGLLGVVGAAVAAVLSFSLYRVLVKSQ
UniProt Q9BQY4: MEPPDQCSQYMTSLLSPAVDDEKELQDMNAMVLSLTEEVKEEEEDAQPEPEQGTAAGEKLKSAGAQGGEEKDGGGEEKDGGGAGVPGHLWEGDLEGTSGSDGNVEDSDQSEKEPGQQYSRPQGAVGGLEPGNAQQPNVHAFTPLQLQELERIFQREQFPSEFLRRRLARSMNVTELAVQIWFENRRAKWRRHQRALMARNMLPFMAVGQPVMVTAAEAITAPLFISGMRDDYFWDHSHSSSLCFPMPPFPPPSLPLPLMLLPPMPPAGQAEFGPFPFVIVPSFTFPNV
UniProt Q9NPQ8: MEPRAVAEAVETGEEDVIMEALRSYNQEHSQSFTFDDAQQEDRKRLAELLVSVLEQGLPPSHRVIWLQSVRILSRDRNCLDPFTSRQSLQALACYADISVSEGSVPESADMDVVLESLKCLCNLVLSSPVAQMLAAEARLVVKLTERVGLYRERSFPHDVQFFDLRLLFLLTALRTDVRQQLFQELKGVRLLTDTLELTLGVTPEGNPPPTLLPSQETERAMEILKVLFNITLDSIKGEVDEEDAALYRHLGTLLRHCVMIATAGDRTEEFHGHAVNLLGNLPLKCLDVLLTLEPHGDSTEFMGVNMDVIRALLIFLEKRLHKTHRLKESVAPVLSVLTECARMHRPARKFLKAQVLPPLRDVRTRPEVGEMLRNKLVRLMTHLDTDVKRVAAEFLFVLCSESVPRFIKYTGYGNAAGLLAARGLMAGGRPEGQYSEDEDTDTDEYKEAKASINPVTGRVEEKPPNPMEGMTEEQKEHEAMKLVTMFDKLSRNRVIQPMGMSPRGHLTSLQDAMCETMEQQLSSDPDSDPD
UniProt Q8WU17: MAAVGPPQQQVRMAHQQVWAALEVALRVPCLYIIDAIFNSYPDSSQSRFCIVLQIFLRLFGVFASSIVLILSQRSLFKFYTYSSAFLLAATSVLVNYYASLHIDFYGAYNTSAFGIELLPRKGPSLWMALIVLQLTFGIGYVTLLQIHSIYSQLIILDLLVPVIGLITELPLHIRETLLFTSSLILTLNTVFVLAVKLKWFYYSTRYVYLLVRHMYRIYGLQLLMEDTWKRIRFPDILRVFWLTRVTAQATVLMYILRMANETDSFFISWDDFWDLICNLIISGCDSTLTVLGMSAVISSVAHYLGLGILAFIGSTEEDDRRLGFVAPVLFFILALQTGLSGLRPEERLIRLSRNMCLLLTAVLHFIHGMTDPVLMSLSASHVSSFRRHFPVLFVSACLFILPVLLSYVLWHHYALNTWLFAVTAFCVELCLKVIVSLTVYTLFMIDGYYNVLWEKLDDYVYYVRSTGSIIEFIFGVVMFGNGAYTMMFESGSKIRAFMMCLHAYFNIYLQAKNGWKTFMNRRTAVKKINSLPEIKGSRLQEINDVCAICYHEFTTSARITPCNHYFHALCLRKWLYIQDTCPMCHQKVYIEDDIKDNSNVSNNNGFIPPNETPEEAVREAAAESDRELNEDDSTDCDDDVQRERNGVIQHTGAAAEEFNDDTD
UniProt O43665: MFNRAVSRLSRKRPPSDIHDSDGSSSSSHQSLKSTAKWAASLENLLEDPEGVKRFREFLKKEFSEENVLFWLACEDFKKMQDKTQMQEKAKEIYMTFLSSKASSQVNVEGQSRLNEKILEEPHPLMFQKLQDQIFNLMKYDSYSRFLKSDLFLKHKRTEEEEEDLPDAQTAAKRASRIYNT
UniProt Q05823: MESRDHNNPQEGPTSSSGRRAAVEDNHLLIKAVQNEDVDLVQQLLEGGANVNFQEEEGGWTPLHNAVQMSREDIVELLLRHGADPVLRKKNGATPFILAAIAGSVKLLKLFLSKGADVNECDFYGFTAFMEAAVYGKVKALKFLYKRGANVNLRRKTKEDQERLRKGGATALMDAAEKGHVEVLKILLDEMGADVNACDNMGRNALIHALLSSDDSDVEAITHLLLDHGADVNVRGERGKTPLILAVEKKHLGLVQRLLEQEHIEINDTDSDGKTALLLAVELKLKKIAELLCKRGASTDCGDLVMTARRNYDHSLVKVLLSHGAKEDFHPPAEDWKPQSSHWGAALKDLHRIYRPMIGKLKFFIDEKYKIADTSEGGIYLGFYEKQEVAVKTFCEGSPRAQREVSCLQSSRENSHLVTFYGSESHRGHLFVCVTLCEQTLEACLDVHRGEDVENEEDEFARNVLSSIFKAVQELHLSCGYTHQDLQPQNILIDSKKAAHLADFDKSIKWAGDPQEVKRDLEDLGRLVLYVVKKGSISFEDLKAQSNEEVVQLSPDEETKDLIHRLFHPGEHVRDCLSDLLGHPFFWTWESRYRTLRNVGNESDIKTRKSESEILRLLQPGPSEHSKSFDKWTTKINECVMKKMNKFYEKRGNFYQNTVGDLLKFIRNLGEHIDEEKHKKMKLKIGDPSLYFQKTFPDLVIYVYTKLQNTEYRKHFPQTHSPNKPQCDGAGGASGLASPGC
UniProt P05387, whole entry: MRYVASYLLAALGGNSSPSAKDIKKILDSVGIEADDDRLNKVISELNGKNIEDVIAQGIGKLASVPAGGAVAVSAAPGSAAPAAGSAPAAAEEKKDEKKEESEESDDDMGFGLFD

Compound: COc1ccc(Cn2ccc3ccc(C(=O)NO)cc32)cc1
Assay: dose-dependent thermal stabilisation call (2D-TPP, DLPTP, 10% FDR) (binary (1 = stabilised)); higher = stabilised by the compound
Settings: system: HL-60 intact cells; concentration range 0.04-10 µM

| Target | dose-dependent thermal stabilisation call |
| --- | --- |
| RING1 (UniProt Q06587) | inactive: 0 |
| RXRB (UniProt P28702) | inactive: 0 |
| RPS3A (UniProt P61247) | inactive: 0 |
| RPL15 (UniProt P61313) | inactive: 0 |
| RPS3 (UniProt P23396) | inactive: 0 |
| RPS6KA5 (UniProt O75582) | inactive: 0 |
| RNF160 (UniProt O94822) | inactive: 0 |
| RPL26 (UniProt P61254) | inactive: 0 |
| SAP30 (UniProt O75446) | inactive: 0 |
| RNF149 (UniProt Q8NC42) | inactive: 0 |
| RPS17 (UniProt P08708) | active: 1 |
| SAPS3 (UniProt Q5H9R7) | inactive: 0 |
| RECQL (UniProt P46063) | inactive: 0 |
| RSU1 (UniProt Q15404) | inactive: 0 |
| RPL37A (UniProt P61513) | inactive: 0 |
| RC3H1 (UniProt Q5TC82) | inactive: 0 |
| RELA (UniProt Q04206) | inactive: 0 |
| RHOT2 (UniProt Q8IXI1) | inactive: 0 |
| RUNX2 (UniProt Q13950) | inactive: 0 |

| Target | dose-dependent thermal stabilisation call |
| --- | --- |
| RRN3 (UniProt Q9NYV6) | inactive: 0 |
| RPP14 (UniProt O95059) | inactive: 0 |
| RPL7 (UniProt P18124) | inactive: 0 |
| RP11-529I10 4 | inactive: 0 |
| RRAGC (UniProt Q9HB90) | inactive: 0 |
| RHOXF2 (UniProt Q9BQY4) | inactive: 0 |
| RIC8A (UniProt Q9NPQ8) | inactive: 0 |
| RGS18 (UniProt Q9NS28) | inactive: 0 |
| RNF139 (UniProt Q8WU17) | inactive: 0 |
| RPS27A (UniProt P62979) | inactive: 0 |
| RNASET2 (UniProt O00584) | inactive: 0 |
| RPLP0-LIKE | inactive: 0 |
| RGS10 (UniProt O43665) | inactive: 0 |
| RNASEL (UniProt Q05823) | inactive: 0 |
| RNASEN (UniProt Q9NRR4) | inactive: 0 |
| RPLP2 (UniProt P05387) | inactive: 0 |
| RNASEH2B (UniProt Q5TBB1) | inactive: 0 |
| SAFB2 (UniProt Q14151) | inactive: 0 |

As entered above:
Entry of RNF149 (UniProt Q8NC42) under dose-dependent thermal stabilisation call: inactive: 0
Entry of RP11-529I10 4 under dose-dependent thermal stabilisation call: inactive: 0
